Results taken from PMC6131142.
These are yes or no findings as the source states them, for the method shown. Some entries that bind do so weakly or less than the wild type.

T1: … (IND) transcription factor of Arabidopsis thaliana (Arabidopsis thaliana) (UniProt O81313)
T1 sequence: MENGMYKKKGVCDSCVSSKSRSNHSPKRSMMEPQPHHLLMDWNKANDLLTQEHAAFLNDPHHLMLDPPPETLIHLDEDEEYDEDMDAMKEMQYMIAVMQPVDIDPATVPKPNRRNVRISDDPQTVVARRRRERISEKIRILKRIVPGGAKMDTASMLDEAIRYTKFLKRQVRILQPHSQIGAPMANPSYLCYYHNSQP


Biological target: T1, … (IND) transcription factor of Arabidopsis thaliana (Arabidopsis thaliana)
Experiment: two-hybrid; GAL4 system (pGADT7 and pGBKT7), yeast AH109, co-transformation, 28 °C, growth on selective YSD medium -W-L-H-A, no IAA

Binder | binding
ETT-specific domain (ES domain) of ETTIN (domain or fragment, UniProt O23661 392-608) SISNSGSFVTTGPKRSRIGFSSGKPDIPVSEGIRATDFEESLRFQRVLQGQEIFPGFINTCSDGGAGARRGRFKGTEFGDSYGFHKVLQGQETVPAYSITDHRQQHGLSQRNIWCGPFQNFSTRILPPSVSSSPSSVLLTNSNSPNGRLEDHHGGSGRCRLFGFPLTDETTAVASATAVPCVEGNSMKGASAVQSNHHHSQGRDIYAMRDMLLDIAL | binds
ETT_388-594 (domain or fragment, UniProt O23661 388-594) EPSGSISNSGSFVTTGPKRSRIGFSSGKPDIPVSEGIRATDFEESLRFQRVLQGQEIFPGFINTCSDGGAGARRGRFKGTEFGDSYGFHKVLQGQETVPAYSITDHRQQHGLSQRNIWCGPFQNFSTRILPPSVSSSPSSVLLTNSNSPNGRLEDHHGGSGRCRLFGFPLTDETTAVASATAVPCVEGNSMKGASAVQSNHHHSQGR | binds
